Results as given in doi:10.1101/2020.08.09.242891 (bioRxiv, 2020).
No constants are given. Whether binding was seen depends on the method and setting. Binding seen in cells or lysates may run through a third protein. Here binding means that the protein was enriched with, or labelled near, the bait; the list need not be complete. Where a sequence is shown, tags or fusion partners need not be part of it.

The chains behind the UniProt entries cited, without tags or fusion partners.
UniProt Q9HC52: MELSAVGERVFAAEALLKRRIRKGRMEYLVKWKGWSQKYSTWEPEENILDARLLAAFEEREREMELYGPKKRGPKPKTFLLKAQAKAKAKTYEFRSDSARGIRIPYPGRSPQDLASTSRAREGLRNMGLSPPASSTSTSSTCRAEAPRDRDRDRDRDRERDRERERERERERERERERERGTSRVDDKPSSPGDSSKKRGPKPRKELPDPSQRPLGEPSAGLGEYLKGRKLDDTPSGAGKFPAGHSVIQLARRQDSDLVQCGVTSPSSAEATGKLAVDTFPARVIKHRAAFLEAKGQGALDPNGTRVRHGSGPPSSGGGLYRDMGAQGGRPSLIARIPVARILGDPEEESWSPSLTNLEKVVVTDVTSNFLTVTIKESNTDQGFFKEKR

Target: T1, FLAG-PKD1 (protein kinase D1) (UniProt Q15139)
T1 sequence: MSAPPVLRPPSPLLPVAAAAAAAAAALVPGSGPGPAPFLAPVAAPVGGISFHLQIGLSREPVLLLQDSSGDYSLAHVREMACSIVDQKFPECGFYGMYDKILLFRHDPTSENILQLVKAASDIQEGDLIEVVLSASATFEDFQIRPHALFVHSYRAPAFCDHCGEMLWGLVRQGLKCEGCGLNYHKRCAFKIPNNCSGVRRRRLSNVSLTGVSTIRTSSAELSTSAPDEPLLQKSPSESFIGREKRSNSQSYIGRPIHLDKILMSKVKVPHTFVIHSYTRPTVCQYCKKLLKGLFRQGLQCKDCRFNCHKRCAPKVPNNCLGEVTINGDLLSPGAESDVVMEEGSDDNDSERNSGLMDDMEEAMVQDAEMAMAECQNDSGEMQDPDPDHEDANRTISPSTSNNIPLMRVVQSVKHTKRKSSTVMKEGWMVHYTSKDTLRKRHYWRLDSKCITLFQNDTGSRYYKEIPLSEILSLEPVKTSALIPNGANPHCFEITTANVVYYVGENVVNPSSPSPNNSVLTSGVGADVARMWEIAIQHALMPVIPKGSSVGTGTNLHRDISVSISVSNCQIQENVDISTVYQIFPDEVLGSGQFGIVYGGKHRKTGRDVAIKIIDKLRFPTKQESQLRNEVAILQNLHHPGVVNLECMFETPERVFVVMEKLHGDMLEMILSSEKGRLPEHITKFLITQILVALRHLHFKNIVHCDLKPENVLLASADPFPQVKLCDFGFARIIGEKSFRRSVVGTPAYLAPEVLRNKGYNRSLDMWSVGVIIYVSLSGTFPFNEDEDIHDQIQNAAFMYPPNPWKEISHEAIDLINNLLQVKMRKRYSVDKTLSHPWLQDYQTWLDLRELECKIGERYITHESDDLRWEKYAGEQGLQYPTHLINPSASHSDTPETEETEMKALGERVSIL
Assay: affinity purification with mass spectrometry

**Q.** For “endogenous CBX8 (chromobox 8) (from UniProt Q9HC52 1-389)”, which binding is on record?
**A.** binds
